# Hit rate of the full screen: of about 390,000 compounds, about 910 (0.23%) were called active. Inconclusive results, whose numbers are uncertain, are shown with a selection of clear calls. Calls follow the shape of the dose curve; as a rule, active = well fitted inhibition curve with a large enough effect; inconclusive = small, poorly fitted or top-dose-only effect; inactive = no such curve, though single readings can be large or run the other way. Potencies of inconclusive entries are doubtful fits and often do not repeat.
# Chains of the proteins cited; added tags and fusions are not shown. Lines headed by an entry give the natural chain unless they say otherwise; changes in a name come on top.
# UniProt O94782: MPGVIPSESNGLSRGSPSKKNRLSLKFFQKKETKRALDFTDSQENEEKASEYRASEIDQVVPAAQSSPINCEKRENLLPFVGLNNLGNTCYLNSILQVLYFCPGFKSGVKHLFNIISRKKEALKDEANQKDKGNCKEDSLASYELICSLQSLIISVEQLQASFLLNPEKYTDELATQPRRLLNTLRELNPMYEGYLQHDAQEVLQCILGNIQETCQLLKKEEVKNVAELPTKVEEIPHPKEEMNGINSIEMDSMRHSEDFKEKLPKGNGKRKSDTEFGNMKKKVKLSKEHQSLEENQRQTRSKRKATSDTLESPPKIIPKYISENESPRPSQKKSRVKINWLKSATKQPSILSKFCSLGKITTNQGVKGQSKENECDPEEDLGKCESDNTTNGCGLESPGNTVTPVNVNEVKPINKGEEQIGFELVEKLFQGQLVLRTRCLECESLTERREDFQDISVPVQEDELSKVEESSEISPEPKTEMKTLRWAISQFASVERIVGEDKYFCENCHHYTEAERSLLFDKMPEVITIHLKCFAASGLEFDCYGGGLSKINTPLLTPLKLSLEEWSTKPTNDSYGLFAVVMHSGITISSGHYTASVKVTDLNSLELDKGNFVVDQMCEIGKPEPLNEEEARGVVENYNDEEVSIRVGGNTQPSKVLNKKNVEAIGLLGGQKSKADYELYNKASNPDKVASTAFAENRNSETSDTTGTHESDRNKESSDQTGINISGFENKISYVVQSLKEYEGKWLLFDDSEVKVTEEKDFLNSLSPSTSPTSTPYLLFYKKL
# Target: Ubiquitin carboxyl-terminal hydrolase 1 (Homo sapiens) (UniProt O94782)
# Test: Inhibitors of USP1/UAF1: Primary Screen; also: nearly all actives have a fitted effect of over 60% in size
# Conditions: recombinant USP1/UAF1, Ub-Rhodamine cleavage fluorescence; activity change, negative = inhibition: at 57.1 µM (top of the series)
# Outline: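 USP1/UAF1 complex (1 nM) preincubated 15 min at room temperature with compound, then Ub-Rho substrate (150 nM final) added. Kinetic fluorescence at 480/540 nm over 6 reads at 60 s intervals; 50 mM HEPES pH 7.8, 0.5 mM EDTA, 0.1 mg/ml BSA, 1 mM TCEP, 0.01% Tween-20.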
# % is scaled to controls: 0 for no effect and ±100 for the full control effect; potency is read from the fitted curve at half-maximal effect.
Structure (SMILES),Potency,"activity change, negative = inhibition"
COc1cccc(OC(=O)CSc2nnc(-c3ccccc3OC)o2)c1,"inconclusive: 3.55 µM [inhibitor, full curve]",
CC(NC(=O)COC(=O)C12CC3CC(CC(Br)(C3)C1)C2)c1ccccc1 (centres undefined),"inconclusive: 39.8 µM [inhibitor, single point]",
COc1ccc(S(=O)(=O)N(C)C[C@@H]2OCc3cnnn3CCCC(=O)N([C@@H](C)CO)C[C@H]2C)cc1,"inconclusive: 2.24 µM [inhibitor, full curve, poor fit]",
CC(=O)Nc1ccc(OCC(O)Cn2nc(C)c(C(C)=O)c2C)cc1 (centres undefined),"inconclusive: 0.355 µM [inhibitor, full curve, poor fit]",
Cc1ccc(NC(=O)CSc2nn(-c3ccc(Cl)cc3)c(=S)s2)cc1S(=O)(=O)N(C)C,,inactive: -21.2%
COc1cccc(CNC(=O)CN2C(=O)CC(c3ccccc3)=Nc3ccccc32)c1,"inconclusive: 11.2 µM [inhibitor, partial curve, poor fit]",
Cc1cccc(C2=NN(c3ccccc3)[C@H](CO)[C@H]2c2ccc(F)cc2)c1,,inactive: -10.2%
CC(NC(=O)COc1ccccc1-c1ccccc1)c1ccccc1 (centres undefined),,inactive: -13.8%
CCOC(=O)Cn1c(Br)nc2c1c(=O)[nH]c(=O)n2C,"inconclusive: 0.398 µM [inhibitor, full curve, poor fit]",
C=CCn1c(SCC(=C)C)nc2c1c(=O)[nH]c(=O)n2C,"inconclusive: 0.708 µM [inhibitor, full curve, poor fit]",
CCSc1ncnc2sc3c(c12)CCC3,,inactive: -7.5%
CCOC(=O)c1nnn(-c2ccc([N+](=O)[O-])cc2[N+](=O)[O-])c1C,"inconclusive: 7.94 µM [inhibitor, full curve, poor fit]",
Cc1ccc(Cn2ccnc2C(=O)Nc2ccccc2)cc1,,inactive: -4.84%
Cc1ccnc(NC(=O)CNC(=O)c2ccc(Br)o2)c1,,inactive: -8.98%
O=C(NC1CCCC1)c1cc2cc(Br)ccc2o1,,inactive: -19%
Cc1ccc(-c2nn(-c3ccccc3)cc2C(N)=O)o1,"inconclusive: 3.16 µM [inhibitor, full curve, poor fit]",
Cc1ccnc(NC(c2ccccc2)c2ccc3cccnc3c2O)c1 (centres undefined),"inconclusive: 50.1 µM [inhibitor, partial curve, poor fit]",
Cc1ccccc1-c1nnn(CC(=O)NC(=O)NC2CCCC2)n1,,inactive: -4.54%
Fc1ccc(N=Cc2ccc[nH]2)cc1,"inconclusive: 50.1 µM [inhibitor, single point]",
COc1ccc(CCNCc2c(C(=O)O)c(C)n(Cc3ccccc3C)c2C)c(OC)c1,"inconclusive: 5.01 µM [inhibitor, partial curve]",
CSc1ccccc1C(=O)C1CCCN(C(=O)c2cncs2)C1 (centres undefined),,inactive: -20.1%
CC(C)N1C/C(=C/c2ccsc2)C(=O)/C(=C/c2ccsc2)C1,"inconclusive: 25.1 µM [inhibitor, partial curve]",

Structure (SMILES),Potency,"activity change, negative = inhibition"
Cc1nn(-c2nc3ccccc3n2Cc2ccccc2)c2c1C(=O)CC(C)(C)C2,"inconclusive: 44.7 µM [inhibitor, partial curve]",
CC(=O)Nc1cccc(NC(=O)Cn2cnc3c2c(=O)n(C)c(=O)n3C)c1,"inconclusive: 0.631 µM [inhibitor, full curve, poor fit]",
O=C(Nc1cccc(Cl)c1)c1c(NC(=O)C(F)(F)F)sc2c1CCCC2,"inconclusive: 15.8 µM [inhibitor, single point]",
CCOc1ccccc1/C=C/c1onc(C)c1S(=O)(=O)N1CCC(C(=O)NC(C)(C)C)CC1,,inactive: -11.8%
COc1ccc(-c2nn(C)c(=O)c3ccccc23)cc1NC(=O)Cn1nc(-c2ccccc2)c2ccccc2c1=O,"inconclusive: 22.4 µM [inhibitor, partial curve]",
Cn1c(=O)n(C)c2cc(NS(=O)(=O)c3ccccc3)c(NCc3ccccc3)cc21,,inactive: -12.4%
CCOC(=O)C1=C(CSc2nc(C)ccc2C#N)OC(N)=C(C#N)C1c1cccc(OC)c1OC (centres undefined),"inconclusive: 44.7 µM [inhibitor, partial curve, poor fit]",
Nc1nc2c(Cl)ccc(Cl)c2s1,"inconclusive: 1 µM [inhibitor, full curve, poor fit]",
O=C(COC(=O)c1ccc([N+](=O)[O-])o1)Nc1ncc(Cl)cc1Cl,"inconclusive: 35.5 µM [inhibitor, partial curve]",
Cc1ccc(S(=O)(=O)/N=C2/NC(=O)/C(=C\c3ccccc3)S2)cc1,"inconclusive: 39.8 µM [inhibitor, partial curve]",
Cc1ccc(-c2nc3ccccc3n2C)o1,,inactive: -0.93%
N#CCSc1nc2c(cc1C#N)CCCC2,,inactive: 0.0919%
COC(=O)c1c(C)nc2ccccc2c1C(=O)O,,inactive: -6.69%
COc1cc(/C=C/C(O)=C/C(=O)/C=C/c2ccc(O)cc2)ccc1O,active: 28.2 µM,
CC(C)(C)c1ccc(CSc2ccc(S(=O)(=O)N3CCOCC3)cn2)cc1,"inconclusive: 28.2 µM [inhibitor, partial curve]",
Cc1ccc(-c2noc(CNC(=O)c3ccc(C(C)(C)C)cc3)n2)cc1,"inconclusive: 2.51 µM [inhibitor, partial curve]",
CN1/C(=C\C=Nc2cc(S(=O)(=O)N3CCOCC3)ccc2N2CCOCC2)C(C)(C)c2ccccc21,"inconclusive: 35.5 µM [inhibitor, partial curve]",
COc1ccccc1NC(=O)/C(=N/OCc1ccc(C#N)cc1)C(C)=O,"inconclusive: 50.1 µM [inhibitor, partial curve, poor fit]",
Cc1[nH]n(-c2ccccc2)c(=O)c1C(C[N+](=O)[O-])c1ccc(Cl)cc1 (centres undefined),"inconclusive: 35.5 µM [inhibitor, partial curve]",
COc1cc(/C=C(\C#N)C(=O)Nc2ccc3c(c2)OCCO3)ccc1O,"inconclusive: 39.8 µM [inhibitor, partial curve]",
Nc1nonc1C(=O)NCCc1ccccc1,"inconclusive: 44.7 µM [inhibitor, partial curve, poor fit]",
COc1ccccc1C(=O)Nc1cc2c(cc1N1CCCCC1)n(C)c(=O)n2C,"inconclusive: 31.6 µM [inhibitor, partial curve, poor fit]",

# Not a retest: an excerpt of the list.
Structure (SMILES),Potency,"activity change, negative = inhibition"
COc1ccccc1NC(=O)/C(=N/OCc1ccc(C#N)cc1)C(C)=O,"inconclusive: 50.1 µM [inhibitor, partial curve, poor fit]",
Cc1[nH]n(-c2ccccc2)c(=O)c1C(C[N+](=O)[O-])c1ccc(Cl)cc1 (centres undefined),"inconclusive: 35.5 µM [inhibitor, partial curve]",

# Source: PubChem BioAssay AID743255 (National Center for Advancing Translational Sciences (NCATS), 2014)
